The text below walks through data of PMC3046439.

Chains of the proteins cited; added tags and fusions are not shown.
UniProt P49327: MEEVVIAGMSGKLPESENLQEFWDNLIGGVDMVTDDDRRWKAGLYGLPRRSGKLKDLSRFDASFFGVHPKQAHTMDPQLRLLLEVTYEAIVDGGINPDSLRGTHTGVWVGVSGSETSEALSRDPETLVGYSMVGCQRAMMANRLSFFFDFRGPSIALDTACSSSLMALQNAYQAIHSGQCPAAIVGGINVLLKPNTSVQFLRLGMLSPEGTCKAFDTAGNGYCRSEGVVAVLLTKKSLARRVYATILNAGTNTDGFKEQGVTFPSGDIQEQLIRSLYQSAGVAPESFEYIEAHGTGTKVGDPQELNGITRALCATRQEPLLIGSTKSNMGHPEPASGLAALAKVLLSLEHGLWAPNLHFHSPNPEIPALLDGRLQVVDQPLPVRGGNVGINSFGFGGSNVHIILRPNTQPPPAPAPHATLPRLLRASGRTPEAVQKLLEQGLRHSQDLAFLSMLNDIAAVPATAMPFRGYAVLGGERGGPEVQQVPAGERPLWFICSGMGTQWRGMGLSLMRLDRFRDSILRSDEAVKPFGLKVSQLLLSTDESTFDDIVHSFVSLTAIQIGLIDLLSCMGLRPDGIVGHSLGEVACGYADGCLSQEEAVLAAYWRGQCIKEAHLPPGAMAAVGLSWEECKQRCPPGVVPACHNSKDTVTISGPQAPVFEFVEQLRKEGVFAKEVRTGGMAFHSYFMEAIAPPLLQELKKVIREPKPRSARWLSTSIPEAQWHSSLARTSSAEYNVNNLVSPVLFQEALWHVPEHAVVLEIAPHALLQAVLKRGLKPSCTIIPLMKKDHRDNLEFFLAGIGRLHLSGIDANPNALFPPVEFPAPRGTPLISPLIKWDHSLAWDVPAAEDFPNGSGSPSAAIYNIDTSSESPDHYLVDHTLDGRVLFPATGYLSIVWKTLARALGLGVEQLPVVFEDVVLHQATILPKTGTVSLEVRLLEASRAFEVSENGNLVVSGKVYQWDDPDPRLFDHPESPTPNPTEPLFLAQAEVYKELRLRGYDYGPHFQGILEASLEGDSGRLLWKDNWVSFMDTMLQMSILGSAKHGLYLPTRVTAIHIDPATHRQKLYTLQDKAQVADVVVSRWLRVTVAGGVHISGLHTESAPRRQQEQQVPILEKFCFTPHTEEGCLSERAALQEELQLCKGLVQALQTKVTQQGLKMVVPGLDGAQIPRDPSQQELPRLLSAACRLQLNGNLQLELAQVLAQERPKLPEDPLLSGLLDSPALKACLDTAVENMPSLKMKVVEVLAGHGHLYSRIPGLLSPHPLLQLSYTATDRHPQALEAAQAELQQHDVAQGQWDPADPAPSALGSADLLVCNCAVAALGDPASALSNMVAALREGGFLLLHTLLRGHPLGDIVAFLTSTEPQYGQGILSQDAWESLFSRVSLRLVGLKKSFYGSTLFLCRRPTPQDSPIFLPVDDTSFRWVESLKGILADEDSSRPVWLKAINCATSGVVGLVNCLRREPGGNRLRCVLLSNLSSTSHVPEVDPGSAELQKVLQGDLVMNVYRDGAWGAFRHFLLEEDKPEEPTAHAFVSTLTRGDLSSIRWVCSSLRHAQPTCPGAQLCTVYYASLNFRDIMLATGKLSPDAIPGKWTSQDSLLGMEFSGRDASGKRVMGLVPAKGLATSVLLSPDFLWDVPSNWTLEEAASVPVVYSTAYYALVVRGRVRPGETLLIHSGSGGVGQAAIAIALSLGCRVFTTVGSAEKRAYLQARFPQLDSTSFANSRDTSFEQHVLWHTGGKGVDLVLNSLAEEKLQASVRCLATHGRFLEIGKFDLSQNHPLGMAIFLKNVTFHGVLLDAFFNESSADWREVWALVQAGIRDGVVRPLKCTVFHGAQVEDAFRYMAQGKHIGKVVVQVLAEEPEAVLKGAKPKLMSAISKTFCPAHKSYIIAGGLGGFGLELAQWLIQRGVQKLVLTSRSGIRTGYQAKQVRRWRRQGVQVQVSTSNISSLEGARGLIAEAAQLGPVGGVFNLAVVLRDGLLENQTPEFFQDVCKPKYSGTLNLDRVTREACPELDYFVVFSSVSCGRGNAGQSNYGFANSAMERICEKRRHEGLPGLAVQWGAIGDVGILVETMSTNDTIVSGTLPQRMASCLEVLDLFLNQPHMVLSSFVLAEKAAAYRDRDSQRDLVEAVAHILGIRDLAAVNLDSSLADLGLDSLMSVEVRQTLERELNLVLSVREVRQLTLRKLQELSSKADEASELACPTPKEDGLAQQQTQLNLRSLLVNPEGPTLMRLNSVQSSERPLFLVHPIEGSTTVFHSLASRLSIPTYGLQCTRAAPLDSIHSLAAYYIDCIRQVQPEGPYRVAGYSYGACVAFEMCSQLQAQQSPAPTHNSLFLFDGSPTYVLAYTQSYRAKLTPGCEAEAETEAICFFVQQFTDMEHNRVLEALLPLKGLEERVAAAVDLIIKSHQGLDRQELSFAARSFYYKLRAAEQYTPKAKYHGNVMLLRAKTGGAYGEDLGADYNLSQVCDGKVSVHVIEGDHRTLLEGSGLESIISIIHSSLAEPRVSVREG

Results are given in words; binding and its absence hold for the method and conditions named. In cells and extracts the contact can be indirect. Some entries that bind do so weakly or less than the wild type.

For the assay, the target named is fatty acid synthase (FASN) (human (endogenous in SKBR3 and BT474)) (UniProt P49327). Nature of the assay: co-IP; FASN immunoprecipitated with 2 ug anti-FASN antibody and protein G agarose from lysates (1% Triton-X 100, 50 mM Tris-Cl pH 8.0, 150 mM NaCl, 5 mM EDTA) of serum-starved SKBR3 and BT474 cells; Western blot for FASN, HER2 and PT66; cells treated with no agent, 50 ng/mL HRG, 1 uM lapatinib, HRG plus lapatinib, 10 uM C75, or HRG plus C75. For orientation: In western blotting, separated proteins are transferred to a membrane and probed.

As to “human epidermal growth factor receptor 2 (HER2) (from UniProt P04626 23-1255)”, the binding result is listed as “binds”.
